Source: article PMC8213057, “Targeting ALK2: An Open Science Approach to Developing Therapeutics for the Treatment of Diffuse Intrinsic Pontine Glioma” (Journal of Medicinal Chemistry, 2020)

What was measured:
[1] = target: Aurora A (Homo sapiens, UniProt O14965); experiment: biochemical; settings: read-out: % enzyme activity, 1 μM; Run 1, Run 2
[2] = target: CAMK2a (Homo sapiens, UniProt Q9UQM7); experiment: biochemical; settings: read-out: % enzyme activity, 1 μM; Run 1, Run 2
[3] = target: MST2/STK3 (Homo sapiens, UniProt Q13188); settings: 1 μM; Run 1, Run 2
[4] = target: CK2a2 (Homo sapiens, UniProt P19784); settings: 1 μM; Run 1, Run 2
[5] = target: PDGFRa (Homo sapiens, UniProt P16234); experiment: biochemical; settings: read-out: % enzyme activity, 1 μM; Run 1, Run 2
[6] = target: ROS/ROS1 (Homo sapiens, UniProt P08922); experiment: biochemical; settings: read-out: % enzyme activity, 1 μM; Run 1, Run 2
[7] = target: PDK1/PDPK1 (Homo sapiens, UniProt O15530); experiment: biochemical; settings: read-out: % enzyme activity, 1 μM; Run 1, Run 2
[8] = target: NEK3 (Homo sapiens, UniProt P51956); experiment: biochemical; settings: read-out: % enzyme activity, 1 μM; Run 1, Run 2
[9] = target: MKK6 (Homo sapiens, UniProt P52564); experiment: biochemical; settings: read-out: % enzyme activity, 1 μM; Run 1, Run 2
[10] = target: CDK7/cyclin H (Homo sapiens, UniProt P50613); experiment: biochemical; settings: read-out: % enzyme activity, 1 μM; Run 1, Run 2
[11] = target: PLK1 (Homo sapiens, UniProt P53350); experiment: biochemical; settings: read-out: % enzyme activity, 1 μM; Run 1, Run 2
[12] = target: PLK3 (Homo sapiens, UniProt Q9H4B4); experiment: biochemical; settings: read-out: % enzyme activity, 1 μM; Run 1, Run 2
[13] = target: PKA (Homo sapiens, UniProt P17612); experiment: biochemical; settings: read-out: % enzyme activity, 1 μM; Run 1, Run 2
[14] = target: MKK7 (Homo sapiens, UniProt O14733); settings: 1 μM; Run 1, Run 2
[15] = target: WNK2 (Homo sapiens, UniProt Q9Y3S1); experiment: biochemical; settings: read-out: % enzyme activity, 1 μM; Run 1, Run 2
[16] = target: WEE1 (Homo sapiens, UniProt P30291); settings: 1 μM; Run 1, Run 2
[17] = target: PBK/TOPK (Homo sapiens, UniProt Q96KB5); experiment: biochemical; settings: read-out: % enzyme activity, 1 μM; Run 1, Run 2
[18] = target: CDK1/cyclin E (Homo sapiens, UniProt P06493); settings: 1 μM; Run 1, Run 2
[19] = target: NEK11 (Homo sapiens, UniProt Q8NG66); experiment: biochemical; settings: read-out: % enzyme activity, 1 μM; Run 1, Run 2
[20] = target: SRPK1 (Homo sapiens, UniProt Q96SB4); experiment: biochemical; settings: read-out: % enzyme activity, 1 μM; Run 1, Run 2
[21] = target: CAMKK1 (Homo sapiens, UniProt Q8N5S9); settings: 1 μM; Run 1, Run 2
[22] = target: MEKK1 (Homo sapiens, UniProt Q13233); experiment: biochemical; settings: read-out: % enzyme activity, 1 μM; Run 1, Run 2
[23] = target: EPHB1 (Homo sapiens, UniProt P54762); experiment: biochemical; settings: read-out: % enzyme activity, 1 μM; Run 1, Run 2
[24] = target: GRK1 (Homo sapiens, UniProt Q15835); settings: 1 μM; Run 1, Run 2
[25] = target: LRRK2 (Homo sapiens, UniProt Q5S007); settings: 1 μM; Run 1, Run 2
[26] = target: MYO3b (Homo sapiens, UniProt Q8WXR4); experiment: biochemical; settings: read-out: % enzyme activity, 1 μM; Run 1, Run 2
[27] = target: EPHA4 (Homo sapiens, UniProt P54764); experiment: biochemical; settings: read-out: % enzyme activity, 1 μM; Run 1, Run 2
[28] = target: TAK1 (Homo sapiens, UniProt O43318); settings: 1 μM; Run 1, Run 2
[29] = target: LOK/STK10 (Homo sapiens, UniProt O94804); settings: 1 μM; Run 1, Run 2
[30] = target: GRK5 (Homo sapiens, UniProt P34947); settings: 1 μM; Run 1, Run 2
[31] = target: CK1a1L (Homo sapiens, UniProt Q8N752); settings: 1 μM; Run 1, Run 2
[32] = target: TAOK3/JIK (Homo sapiens, UniProt Q9H2K8); settings: 1 μM; Run 1, Run 2
[33] = target: NEK6 (Homo sapiens, UniProt Q9HC98); settings: 1 μM; Run 1, Run 2
[34] = target: GRK3 (Homo sapiens, UniProt P35626); experiment: biochemical; settings: read-out: % enzyme activity, 1 μM; Run 1, Run 2
[35] = target: IKKe/IKBKE (Homo sapiens, UniProt Q14164); settings: 1 μM; Run 1, Run 2
[36] = target: TTBK2 (Homo sapiens, UniProt Q6IQ55); settings: 1 μM; Run 1, Run 2
[37] = target: CDK2/cyclin O (Homo sapiens, UniProt P24941); settings: 1 μM; Run 1, Run 2
[38] = target: PKN3/PRK3 (Homo sapiens, UniProt Q6P5Z2); settings: 1 μM; Run 1, Run 2
[39] = target: OSR1/OXSR1 (Homo sapiens, UniProt O95747); experiment: biochemical; settings: read-out: % enzyme activity, 1 μM; Run 1, Run 2
[40] = target: PAK2 (Homo sapiens, UniProt Q13177); experiment: biochemical; settings: read-out: % enzyme activity, 1 μM; Run 1, Run 2
[41] = target: CK1epsilon (Homo sapiens, UniProt P49674); experiment: biochemical; settings: read-out: % enzyme activity, 1 μM; Run 1, Run 2
[42] = target: STK22D/TSSK1 (Homo sapiens, UniProt Q9BXA7); settings: 1 μM; Run 1, Run 2
[43] = target: DRAK1/STK17A (Homo sapiens, UniProt Q9UEE5); settings: 1 μM; Run 1, Run 2

## COc1cc(-c2cncc(-c3ccc(N4CCN(C(C)C)CC4)cc3)c2C)cc(F)c1C(N)=O [Compound 26b, 2-Fluoro-4-(5-(4-(4-isopropylpiperazin-1-yl)phenyl)-4-methylpyridin-3-yl)-6-methoxybenzamide]
[1]
  remaining activity at 1 µM: 93.8%
[2]
  remaining activity at 1 µM: 89.9%
[3]
  % enzyme activity: 93.52%
[4]
  % enzyme activity: 91.24%
[5]
  remaining activity at 1 µM: 80%
[6]
  remaining activity at 1 µM: 95.6%
[7]
  remaining activity at 1 µM: 96.3%
[8]
  remaining activity at 1 µM: 96.1%
[9]
  remaining activity at 1 µM: 68.5%
[10]
  remaining activity at 1 µM: 103%
[11]
  remaining activity at 1 µM: 98.8%
[12]
  remaining activity at 1 µM: 96%
[13]
  remaining activity at 1 µM: 98%
[14]
  % enzyme activity: 98.52%
[15]
  remaining activity at 1 µM: 98.9%
[16]
  % enzyme activity: 120.95%
[17]
  remaining activity at 1 µM: 95%
[18]
  % enzyme activity: 99.30%
[19]
  remaining activity at 1 µM: 92%
[20]
  remaining activity at 1 µM: 105%
[21]
  % enzyme activity: 88.83%
[22]
  remaining activity at 1 µM: 89.4%
[23]
  remaining activity at 1 µM: 91.5%
[24]
  % enzyme activity: 93.08%
[25]
  % enzyme activity: 73.65%
[26]
  remaining activity at 1 µM: 85%
[27]
  remaining activity at 1 µM: 101%
[28]
  % enzyme activity: 97.41%
[29]
  % enzyme activity: 61.54%
[30]
  % enzyme activity: 97.81%
[31]
  % enzyme activity: 102.82%
[32]
  % enzyme activity: 65.47%
[33]
  % enzyme activity: 100.11%
[34]
  remaining activity at 1 µM: 97.9%
[35]
  % enzyme activity: 82.11%
[36]
  % enzyme activity: 94.77%
[37]
  % enzyme activity: 92.30%
[38]
  % enzyme activity: 98.77%
[39]
  remaining activity at 1 µM: 96.1%
[40]
  remaining activity at 1 µM: 107%
[41]
  remaining activity at 1 µM: 96%
[42]
  % enzyme activity: 99.56%
[43]
  % enzyme activity: 96.54%
